In article doi:10.1101/2024.03.28.586926 one finds binding data, which are given here for one molecule.

The assay deals with T1, Flag-tagged FBXO2 (wild type) (human) (UniProt Q9UK22).
T1 sequence: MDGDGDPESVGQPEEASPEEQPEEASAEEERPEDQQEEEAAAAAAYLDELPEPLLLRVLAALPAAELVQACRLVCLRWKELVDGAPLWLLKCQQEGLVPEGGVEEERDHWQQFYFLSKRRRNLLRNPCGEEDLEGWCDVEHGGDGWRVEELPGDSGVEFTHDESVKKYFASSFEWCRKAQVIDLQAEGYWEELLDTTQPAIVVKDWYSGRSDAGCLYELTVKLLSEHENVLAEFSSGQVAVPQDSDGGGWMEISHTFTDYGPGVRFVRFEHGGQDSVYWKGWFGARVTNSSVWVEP
The assay is described as follows: affinity purification with mass spectrometry.

Results are given in words; binding and its absence hold for the method and conditions named. Binding seen in cells or lysates may run through a third protein. A yes stands for co-enrichment or nearness to the bait. Other partners may have been found. Sequences can lack the tags named with a protein.

B1: heat shock protein 47 (Hsp47), endogenous (protein, UniProt P50454 19-418)
chain: AEVKKPAAAAAPGTAEKLSPKAATLAERSAGLAFSLYQAMAKDQAVENILVSPVVVASSLGLVSLGGKATTASQAKAVLSAEQLRDEEVHAGLGELLRSLSNSTARNVTWKLGSRLYGPSSVSFADDFVRSSKQHYNCEHSKINFRDKRSALQSINEWAAQTTDGKLPEVTKDVERTDGALLVNAMFFKPHWDEKFHHKMVDNRGFMVTRSYTVGVMMMHRTGLYNYYDDEKEKLQIVEMPLAHKLSSLIILMPHHVEPLERLEKLLTKEQLKIWMGKMQKKAVAISLPKGVVEVTHDLQKHLAGLGLTEAIDKNKADLSRMSGKKDLYLASVFHATAFELDTDGNPFDQDIYGREELRSPKLFYADHPFIFLVRDTQSGSLLFIGRLVRPKGDKMRDEL
With B1, the binding result is reported as “binds”.
